# Experimental data from PubChem BioAssay AID1439 (NMMLSC, 2008).
# Chains of the proteins cited; added tags and fusions are not shown.
# UniProt P09471, whole entry, looked up: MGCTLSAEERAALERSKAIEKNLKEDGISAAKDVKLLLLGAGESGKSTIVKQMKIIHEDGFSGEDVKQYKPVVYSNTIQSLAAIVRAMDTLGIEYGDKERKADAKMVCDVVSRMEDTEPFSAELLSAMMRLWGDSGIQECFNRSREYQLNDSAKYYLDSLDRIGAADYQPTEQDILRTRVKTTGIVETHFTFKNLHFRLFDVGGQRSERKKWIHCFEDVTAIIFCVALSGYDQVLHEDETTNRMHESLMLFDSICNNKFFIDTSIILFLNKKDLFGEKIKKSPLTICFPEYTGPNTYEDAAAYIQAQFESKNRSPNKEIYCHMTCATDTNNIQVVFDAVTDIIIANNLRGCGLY
# The whole screen tested about 220,000 compounds, of which about 770 (0.35%) were called active. This list was built around the results that the source calls inconclusive (neither active nor inactive); the mix of calls is not that of the screen. Rule as the data show it: active = binding response below about 49% or above about 150%; inconclusive = no clear call, values can overlap the other calls; inactive = in between.
# Target: Guanine nucleotide-binding protein G(o) subunit alpha (Homo sapiens) (UniProt P09471)
# Test: compounds changing RGS7 association with Galphao – biochemical, multiplexed bead flow cytometry, primary screen (AID 1439);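 also: fluorescent Galphao held in activated GDP-AlF4 state binding bead-coupled RGS7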
# Conditions: at 10 µM, actives lie on both sides
row,Compound,binding response (% of control)
1,CCCCC(CC)CNCC(O)c1ccccc1 (centres undefined),inconclusive: 99%
2,COC(=O)C1C=C2c3cccc4[nH]cc(c34)CC2N(C)C1 (centres undefined),inconclusive: 71.8%
3,CCOCCCNC(=O)CN1C2CCC1CC(O)(c1ccc(OC)cc1)C2 (centres undefined),inactive: 103%
4,O=c1[nH]c(=O)n(Cc2ccco2)c(O)c1C=NCc1cccs1,inactive: 95%
5,CCC(=Nc1ccc2c(c1)CCC2)c1c(O)n(-c2ccc(OC)cc2)c(=O)[nH]c1=O,inconclusive: 102%
6,CC(=NCCCO)c1c(O)[nH]c(=O)[nH]c1=O,inconclusive: 913%
7,O=c1[nH]c(=O)n(CCc2ccccc2)c(O)c1/C=N/N1CCOCC1,inconclusive: 113%
8,C=CCn1c(O)c(C(CC)=NCCc2c[nH]c3ccccc23)c(=O)[nH]c1=O,inconclusive: 102%
9,Oc1ccc2c3c1O[C@H]1c4[nH]c5ccccc5c4C[C@@]4(O)C(C2)N(CC2CC2)CC[C@]314,inactive: 100%
10,CCCC12CN3CCN(C1)CC(CCC)(C3)C2=O,inconclusive: 98.9%
11,COc1cc(CC2(CCc3ccncc3)C(=O)N(C)C(=O)N(C)C2=O)cc(OC)c1OC,inactive: 59.1%
12,CNC(=S)N(C)CCc1cc2c(c(OC)c1/C=C1/C(=O)NC(=O)N(C)C1=O)OCO2,inconclusive: 608%
13,CC(C)Sc1nnc(OC(=O)N(C)C)n1-c1ccccc1,inconclusive: 77.8%
14,O=C1CN=C(c2ccc(Br)cc2)c2c(sc3c2CCCC3)N1CCN1CCCCC1,inactive: 98.7%
15,O=S(=O)(c1ccc(F)cc1)N1CCCCC1c1cccnc1 (centres undefined),inconclusive: 50.6%
16,CCC(C)n1c(O)c(C=NC(C)c2ccccc2)c(=O)[nH]c1=S (centres undefined),inconclusive: 124%
17,O=c1[nH]c(=O)n(CCC2=CCCCC2)c(O)c1/C=N/Nc1cccc2ccccc12,inconclusive: 83.1%
18,CN(C)CCN=Cc1c(O)n(Cc2ccc3c(c2)OCO3)c(=S)[nH]c1=O,inconclusive: 98%
19,O=C(Nc1ccncc1)c1cccn(Cc2ccccc2)c1=O,inconclusive: 114%
20,CN(C)CC1CCCCC1=O (centres undefined),inconclusive: 99.7%
21,COC(=O)c1ccc(N=C(c2ccccc2)c2c(O)n(C)c(=O)n(C)c2=O)cc1,inconclusive: 141%
22,CC12CC[C@H]3[C@@H](CCC4(O)C[C@H](O)CCC34/C=N/NC(=O)c3ccccc3Cl)C1(O)CCC2C1=CC(=O)OC1 (some centres undefined),inconclusive: 103%
23,O=C(O)[C@H]1C[C@@H]1[C@H](NP(=O)(c1ccccc1)c1ccccc1)c1ccccc1,inactive: 109%

row,Compound,binding response (% of control)
1,O=c1[nH]c(=O)n(-c2ccc(Br)cc2)c(O)c1C=NCCN1CCCCC1,inconclusive: 94.9%
2,Cn1c(O)c(/C=N/N2CCOCC2)c(=O)n(-c2ccccc2)c1=S,inconclusive: 338%
3,COc1ccc(C(=O)C2CCCN(Cc3cccc(C)n3)C2)c(OC)c1 (centres undefined),inconclusive: 121%
4,CCC(=O)N1CC(=O)Nc2ccc(Cl)cc2C1c1ccc(F)cc1 (centres undefined),inactive: 101%
5,N#CC1=C(N)Oc2c(c(=O)oc3ccccc23)C1c1ccc([N+](=O)[O-])o1 (centres undefined),inconclusive: 97.7%
6,CCC(=NCc1cccnc1)c1c(O)n(-c2ccccc2)c(=O)[nH]c1=O,inconclusive: 105%
7,O=C(NCCCN1CCOCC1)C(Cl)(Cl)Cl,inactive: 103%
8,Cc1cc(OC(=O)N(C)C)n(-c2ccccc2)n1,inconclusive: 224%
9,CCOP(=S)(NN(Cc1ccccc1)C(=O)c1ccccc1)OCC,inactive: 93.4%
10,CC1CCC(C(C)C)C(OC(=O)Cn2c(COc3ccccc3)[n+](C)c3ccccc32)C1 (centres undefined),inconclusive: 111%
11,C=C1C2C[C@H](O)C(C)(C)[C@@]2(O)[C@H](O)C[C@]23C[C@@](C)(O)[C@H](CC[C@H]12)[C@H]3OC(C)=O (some centres undefined),inactive: 105%
12,O=C(c1ccc(-c2ccccc2)c(F)c1)C1CCCN(CCO)C1 (centres undefined),inactive: 96.5%
13,O=C1NC(=O)N(Cc2ccc(F)cc2)C(=O)/C1=C\c1ccc([N+](=O)[O-])s1,inconclusive: 62.6%
14,CN(C)C(=O)Oc1ccc(Br)cc1C(=O)Nc1ccc(F)c(Cl)c1,inconclusive: 15.4%
15,CCC1(C(=O)c2ccc(C)cc2)C2c3ccccc3OC(=O)C21C(=O)O (centres undefined),inconclusive: 19.4%
16,CC(C)OP(=O)(Oc1ccc(C(O)C(Cl)(Cl)Cl)cc1)OC(C)C (centres undefined),inconclusive: 434%
17,CCN(CCO)c1ccc(N=Cc2c(O)n(C)c(=S)[nH]c2=O)cc1,inconclusive: 103%
18,COC(=O)[C@@H](N)CCCN=C(N)N[N+](=O)[O-],inconclusive: 101%
19,O=C(Cc1ccccc1)NC(Cc1ccc(Cl)cc1)C(=O)O (centres undefined),inconclusive: 78.2%
20,CCCCCCCn1c(=O)c(C(=O)Nc2cnccn2)c(O)c2ccccc21,inconclusive: 91.2%
21,CC1CCCN(C(=O)c2ccc(N3CC4CC(C3)c3cccc(=O)n3C4)c([N+](=O)[O-])c2)C1 (centres undefined),inactive: 106%
22,O=c1[nH]c(O)c(N=Nc2ccc(SC(F)F)cc2)c(=O)[nH]1,inconclusive: 177%
23,CCCCn1c(O)c(C(C)=NCc2ccco2)c(=O)[nH]c1=O,inconclusive: 121%

row,Compound,binding response (% of control)
1,Cc1ccc(OP(N)(=O)Oc2ccc(C)cc2)cc1,inconclusive: 104%
2,CC(Cc1ccsc1)NCc1cn[nH]c1-c1ccc(F)cc1F (centres undefined),inconclusive: 122%
3,O=C(Nc1cccc2ccccc12)N1CCC2(CC1)OCCO2,inconclusive: 100%
4,CCOc1ccc(-n2c(O)c(C=Nc3ccc(NC(C)=O)cc3)c(=O)[nH]c2=O)cc1,inconclusive: 121%
5,C/C(=N\Nc1ccccc1)c1c(O)n(-c2ccccc2)c(=O)[nH]c1=O,inconclusive: 153%
6,CS(=O)(=O)NNP(=O)(NNS(C)(=O)=O)NC(=O)c1ccccc1,inconclusive: 279%
7,O=C(c1cc(=O)[nH]c2ccc(Br)cc12)N1CCC2(CC1)OCCO2,inactive: 106%
8,COC(=O)C1=CCCN(C)C1,active: 5.07%
9,O=C(N/N=C/c1c(O)n(CCc2ccccc2)c(=O)[nH]c1=O)c1ccccc1,inconclusive: 115%
10,O/N=C1\CCC2CN(C3CCCCC3)CC2C1 (centres undefined),inactive: 103%
11,O=C(Cn1cc(C(=O)c2ccccc2)c2ccccc21)NCc1ccco1,inactive: 108%
12,CCOC(=O)c1sc(/N=C/c2c(O)n(-c3cccc(C)c3)c(=O)[nH]c2=O)c(C#N)c1C,inactive: 96.8%
13,Cc1ccc(C(=O)N[C@@H](C)CN2C3=NC[C@@H](Cc4ccccc4)N3C[C@H]2Cc2ccc(O)cc2)cc1Br,active: 5.72%
14,Cc1ccc(OCC(=O)N2CCN(Cc3ccc4c(c3)OCO4)CC2)cc1,inconclusive: 104%
15,CCN1CCN(c2nc([N+](=O)[O-])nn2C)CC1,inconclusive: -472%
16,CN1C2CCC1C(COC(=O)c1ccccc1)C(O)C2 (centres undefined),inconclusive: 30.8%
17,O=[As](O)(O)c1ccc(N=Nc2ccc(O)cc2)cc1,inconclusive: 85.3%
18,CN(C)c1ccc(/C=C2\C(=O)NC(=O)N(Cc3ccc(F)cc3)C2=O)cc1,inconclusive: 86.6%
19,CN1CCN2c3ccccc3CC3(C(=O)N(C)C(=O)N(C)C3=O)C2C1 (centres undefined),inconclusive: 119%
20,CCCCC(=O)N/N=C/c1c(O)n(-c2ccccc2)c(=O)[nH]c1=O,inconclusive: 48.2%
21,CN1CCN(c2nc(N)c(Br)c(Cl)n2)CC1,inconclusive: 86.8%
22,CCn1c(O)c(C=NCCN2CCOCC2)c(=O)[nH]c1=S,inconclusive: 129%
23,CCC(=NCCc1c[nH]c2ccccc12)c1c(O)n(C)c(=O)n(C)c1=O,inactive: 100%

row,Compound,binding response (% of control)
1,Fc1ccc(Cn2nnnc2CN2CCC(n3nnc4cc(C(F)(F)F)ccc43)CC2)cc1,inconclusive: 106%
2,Clc1ccc(OCC#CCN2CCCC2)cc1,inconclusive: 109%
3,COc1ccc(C(O)P(=O)(OC(C)C)OC(C)C)cc1 (centres undefined),inconclusive: 131%
4,O=c1[nH]c(=S)n(CCC2=CCCCC2)c(O)c1/C=N/Nc1ccccc1,inconclusive: 107%
5,CNC(=O)c1cccn(Cc2cccc(C(F)(F)F)c2)c1=O,inconclusive: 105%
6,Cc1cc(NC(=O)CCC(=O)N2CCC3(CC2)OCCO3)no1,inactive: 100%
7,C=CCn1c(O)c(/C=N/N2CCCCC2)c(=O)[nH]c1=O,inconclusive: 160%
8,O=c1[nH]c(=S)n(-c2ccc(F)cc2)c(O)c1/C=N/N1CCOCC1,inconclusive: 124%
9,CCn1cc(C(=O)O)c(=O)c2ccc(C)nc21,inconclusive: -13.3%
10,Cc1nc2ccccc2c(=O)n1-c1ccncc1,inconclusive: 95%
11,COc1ccc(-c2csc(NC(=O)COC(=O)Cc3ccccc3)n2)cc1OC,inactive: 101%
12,N=C1C(c2ccccc2)=C(O)CN1Cc1ccco1,inactive: 101%
13,CC(C)N1CC=C(c2c[nH]c3ccccc23)CC1,inactive: 98.1%
14,CCN(CC)c1ccc(CNCCc2ccccc2F)cc1,inconclusive: 67.9%
15,O=C(Cc1ccccc1)N1CCN(Cc2cccc(Br)c2)CC1,inconclusive: 124%
16,CC1CN(c2ccc([N+](=O)[O-])c(N3CCCCC3)c2)CCN1 (centres undefined),inconclusive: 96.5%
17,Cc1ccsc1C(=O)C1CCCN(Cc2cnc(N)nc2)C1 (centres undefined),inconclusive: 123%
18,COc1ccc(N2C(=O)NC(=O)/C(=C/c3ccc([N+](=O)[O-])s3)C2=O)cc1,inconclusive: 79.3%
19,Fc1ccc(C2N3CCCN23)cc1 (centres undefined),inconclusive: 94.7%
20,O=C(O)CC1OCC=C2CN3CCC45C6=CC(=O)C(=O)C([N+](=O)[O-])=C6NC4C1C2CC35 (centres undefined),inconclusive: 139%

# Grouped by structure: the compounds so far with a COOH group.
row,Compound,binding response (% of control)
23,O=C(O)[C@H]1C[C@@H]1[C@H](NP(=O)(c1ccccc1)c1ccccc1)c1ccccc1,inactive: 109%
15,CCC1(C(=O)c2ccc(C)cc2)C2c3ccccc3OC(=O)C21C(=O)O (centres undefined),inconclusive: 19.4%
19,O=C(Cc1ccccc1)NC(Cc1ccc(Cl)cc1)C(=O)O (centres undefined),inconclusive: 78.2%
9,CCn1cc(C(=O)O)c(=O)c2ccc(C)nc21,inconclusive: -13.3%
20,O=C(O)CC1OCC=C2CN3CCC45C6=CC(=O)C(=O)C([N+](=O)[O-])=C6NC4C1C2CC35 (centres undefined),inconclusive: 139%
